Data as given in PubChem BioAssay AID1508597 (Cure First, 2020)
Screen: 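Knock-downs altering ovarian cancer cell survival with or without PARP inhibitor rucaparib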 (primary screen). Cell system: human ovarian carcinoma lines grown from tumours: OCI-P5x (papillary serous) and OCI-C5x (clear cell). Reagents: siRNA pool against human genes, 1.25 pmol siRNA per well. Time to read-out: 72 h or 96 h, depending on the cell culture. Challenge: rucaparib 20 µM (about IC30) or vehicle, present until read-out. Rucaparib or vehicle: Vehicle. Cell line: OCI-P5x (serous). Measured: 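ATP luminescence measured at 72 or 96 h according to the culture, then normalised and expressed as percent viability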. Reading the numbers: viability, normalised: higher = more viable cells remaining. Hit rule: 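Active when normalised viability falls below 80 percent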. Meaning of the calls: active = viability under 80%; inactive = viability 80% or more.
Shown is a random part of the about 2,100 reagents, under one of the conditions tested. 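Calls flag viability under 80% in either arm, not effects specific to rucaparib; the reference for percent is not stated.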 A reagent listed more than once was tested more than once; the source does not tell the runs apart. Not given: the 100% reference.

| target | technical replicate | viability, normalised (%) | activity call |
| --- | --- | --- | --- |
| H4C15 (GeneID 554313) | 1 | 73.1 | active |
| H4C15 (GeneID 554313) | 2 | 79 | active |
| H4C15 (GeneID 554313) | 3 | 74.4 | active |
| XYLB (GeneID 9942) | 1 | 95.7 | inactive |
| XYLB (GeneID 9942) | 2 | 79.5 | active |
| XYLB (GeneID 9942) | 3 | 89.8 | inactive |
| XPA (GeneID 7507) | 1 | 58 | active |
| XPA (GeneID 7507) | 2 | 48.3 | active |
| XPA (GeneID 7507) | 3 | 65 | active |
| PRKAR2A (GeneID 5576) | 1 | 101 | inactive |
| PRKAR2A (GeneID 5576) | 2 | 96.6 | inactive |
| PRKAR2A (GeneID 5576) | 3 | 90.1 | inactive |
| VRK2 (GeneID 7444) | 1 | 98.6 | inactive |
| VRK2 (GeneID 7444) | 2 | 96 | inactive |
| VRK2 (GeneID 7444) | 3 | 86.4 | inactive |
| BRPF1 (GeneID 7862) | 1 | 76.8 | active |
| BRPF1 (GeneID 7862) | 2 | 99.9 | inactive |
| BRPF1 (GeneID 7862) | 3 | 59.8 | active |
| MLKL (GeneID 197259) | 1 | 80.5 | inactive |
| MLKL (GeneID 197259) | 2 | 97.9 | inactive |
| MLKL (GeneID 197259) | 3 | 104 | inactive |
| CSNK1E (GeneID 1454) | 1 | 82.2 | inactive |
| CSNK1E (GeneID 1454) | 1 | 75.4 | active |
| CSNK1E (GeneID 1454) | 1 | 77.7 | active |
| CSNK1E (GeneID 1454) | 2 | 78.1 | active |
| CSNK1E (GeneID 1454) | 2 | 93.7 | inactive |
| CSNK1E (GeneID 1454) | 2 | 76.6 | active |
| CSNK1E (GeneID 1454) | 3 | 87.9 | inactive |
| CSNK1E (GeneID 1454) | 3 | 102 | inactive |
| CSNK1E (GeneID 1454) | 3 | 78.5 | active |
| PIK3C3 (GeneID 5289) | 1 | 77.9 | active |
| PIK3C3 (GeneID 5289) | 2 | 78.8 | active |
| PIK3C3 (GeneID 5289) | 3 | 98.6 | inactive |
| GRB10 (GeneID 2887) | 1 | 68.6 | active |
| GRB10 (GeneID 2887) | 2 | 64.9 | active |
| GRB10 (GeneID 2887) | 3 | 67.9 | active |
| PIK3R2 (GeneID 5296) | 1 | 74.5 | active |
| PIK3R2 (GeneID 5296) | 2 | 56.3 | active |
| PIK3R2 (GeneID 5296) | 3 | 71.9 | active |
| PDE2A (GeneID 5138) | 1 | 73.3 | active |
| PDE2A (GeneID 5138) | 2 | 82.2 | inactive |
| PDE2A (GeneID 5138) | 3 | 78.8 | active |
| TRIB1 (GeneID 10221) | 1 | 64.8 | active |
| TRIB1 (GeneID 10221) | 1 | 71.5 | active |
| TRIB1 (GeneID 10221) | 2 | 85 | inactive |
| TRIB1 (GeneID 10221) | 2 | 63.2 | active |
| TRIB1 (GeneID 10221) | 3 | 74 | active |
| TRIB1 (GeneID 10221) | 3 | 64.5 | active |
| LCK (GeneID 3932) | 1 | 90.8 | inactive |
| LCK (GeneID 3932) | 2 | 88.1 | inactive |
| LCK (GeneID 3932) | 3 | 85.4 | inactive |
| EP400 (GeneID 57634) | 1 | 57.1 | active |
| EP400 (GeneID 57634) | 2 | 71.8 | active |
| EP400 (GeneID 57634) | 3 | 62.7 | active |
| MAP3K11 (GeneID 4296) | 1 | 113 | inactive |
| MAP3K11 (GeneID 4296) | 2 | 101 | inactive |
| MAP3K11 (GeneID 4296) | 3 | 95.3 | inactive |
| RAD50 (GeneID 10111) | 1 | 81.2 | inactive |
| RAD50 (GeneID 10111) | 2 | 78.8 | active |
| RAD50 (GeneID 10111) | 3 | 73.7 | active |
| PRKCB (GeneID 5579) | 1 | 50.1 | active |
| PRKCB (GeneID 5579) | 1 | 88.2 | inactive |
| PRKCB (GeneID 5579) | 2 | 72.5 | active |
| PRKCB (GeneID 5579) | 2 | 47.6 | active |
| PRKCB (GeneID 5579) | 3 | 84.7 | inactive |
| PRKCB (GeneID 5579) | 3 | 84.5 | inactive |
| FBXO11 (GeneID 80204) | 1 | 41.3 | active |
| FBXO11 (GeneID 80204) | 2 | 50.4 | active |
| FBXO11 (GeneID 80204) | 3 | 78.8 | active |
| SFMBT1 (GeneID 51460) | 1 | 64.1 | active |
| SFMBT1 (GeneID 51460) | 2 | 66.4 | active |
| SFMBT1 (GeneID 51460) | 3 | 76.7 | active |
| GCKR (GeneID 2646) | 1 | 51.6 | active |
| GCKR (GeneID 2646) | 2 | 48.6 | active |
| GCKR (GeneID 2646) | 3 | 53.5 | active |

Not a retest: an excerpt of the list.
| target | technical replicate | viability, normalised (%) | activity call |
| --- | --- | --- | --- |
| FBXO11 (GeneID 80204) | 2 | 50.4 | active |
| FBXO11 (GeneID 80204) | 3 | 78.8 | active |
| SFMBT1 (GeneID 51460) | 1 | 64.1 | active |
| SFMBT1 (GeneID 51460) | 2 | 66.4 | active |
| SFMBT1 (GeneID 51460) | 3 | 76.7 | active |
| GCKR (GeneID 2646) | 1 | 51.6 | active |
